This note sets out measurements from patent publication US20260274991A1.

Chains of the proteins cited; added tags and fusions are not shown. Lines headed by an entry give the natural chain unless they say otherwise; changes in a name come on top.
UniProt P07477: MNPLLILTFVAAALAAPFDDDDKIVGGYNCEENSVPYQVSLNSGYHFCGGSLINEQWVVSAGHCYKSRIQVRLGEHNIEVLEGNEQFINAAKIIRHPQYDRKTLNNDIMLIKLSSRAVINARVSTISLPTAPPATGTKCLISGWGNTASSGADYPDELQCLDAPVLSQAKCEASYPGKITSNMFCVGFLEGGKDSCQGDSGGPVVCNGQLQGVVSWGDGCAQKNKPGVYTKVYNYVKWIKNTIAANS
UniProt P07478: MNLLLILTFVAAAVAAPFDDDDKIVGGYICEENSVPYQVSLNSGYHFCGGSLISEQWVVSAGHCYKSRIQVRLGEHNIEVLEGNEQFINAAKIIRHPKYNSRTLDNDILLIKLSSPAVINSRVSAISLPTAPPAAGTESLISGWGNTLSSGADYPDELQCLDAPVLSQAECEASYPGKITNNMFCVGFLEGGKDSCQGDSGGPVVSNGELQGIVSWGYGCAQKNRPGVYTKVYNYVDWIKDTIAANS

Residue numbers refer to the chain shown, from its start. These are yes or no findings as the source states them, for the method shown. Some binding calls cover weakened binding; strength is not graded here.

Sequences and labels used below:
B1: Trypsin 1/Trypsin 2-Dual-L2-Ab3 (antibody, V domains shown)
VH: QVQLQESGPGLVKPSETLSLTCTVSGGSISSHYWHWIRQPAGKGLEWIGRIATSGSTYYNPSLKSRVTMSVDTSKNQFSLKLSSVTAADTAVYYCARDLTNYGITKSIRFYGMDVWGQGTTVTVSS
VL: DIQMTQSPSSLSASVGDRVTITCQASQDISNYLNWYQQKPGKAPKLLIYDASNLETGVPSRFSGSGSGTDFTFTISSLQPEDIATYYCQQVDNFITFGGGTKVEIK
B2: Trypsin 1/Trypsin 2-Dual-L2-Ab1 (antibody, V domains shown)
VH: B1 VH with H32Y, H35S, A52Y, Y58N, I104S, T105G
VL: B1 VL with V91D
B3: Trypsin 1/Trypsin 2-Dual-L2-Ab4 (antibody, V domains shown)
VH: B1 VH with A52H, Y58F, I104W, T105S
VL: B1 VL with V91T
B4: Trypsin 1/Trypsin 2-Dual-L2-Ab2 (antibody, V domains shown)
VH: B1 VH with H32N, A52H, Y58F, L99I, I104S, T105G, G112P
VL: B1 VL with V91D, N93T
B5: Trypsin 1/Trypsin 2-Dual-L1-Ab1 (antibody, V domains shown)
VH: EVQLLESGGGLVQPGGSLRLSCAASGFTFSSYAMSWVRQAPGKGLEWVSAISASGGSTYYADSVKGRFTISRDNSKNTLYLQMNSLRAEDTAVYYCARGSPIGYSYARVSYYYYMDVWGKGTTVTVSS
VL: DIQMTQSPSSVSASVGDRVTITCRASQGISRWLAWYQQKPGKAPKLLIYAASSLQSGVPSRFSGSGSGTDFTLTISSLQPEDFATYYCQQGNSFPLTFGGGTKVEIK
B6: Trypsin 1/Trypsin 2-Dual-L1-Ab2 (antibody, V domains shown)
VH: B5 VH with S30G, S31D, S35W, G56D, S57V, P101L, M115S
VL: B5 VL with N92W
B7: Trypsin 1/Trypsin 2-Dual-L4-Ab4 (antibody, V domains shown)
VH: QVQLVQSGAEVKKPGASVKVSCKASGYTFTDYAISWVRQAPGQGLEWMGWISASTADTNYAQKLQGRVTMTTDTSTSTAYMELRSLRSDDTAVYYCARGTEVVGKMTVYLGMDVWGQGTTVTVSS
VL: B5 VL with G91A, L96I
B8: Trypsin 1/Trypsin 2-Dual-L4-Ab3 (antibody, V domains shown)
VH: B7 VH with T100D, M106R, V108Y, L110I
VL: B5 VL with G91A, L96I
B9: Trypsin 1/Trypsin 2-Dual-L4-Ab1 (antibody, V domains shown)
VH: B7 VH with D31S, A33G, S54Y, T55S, A56G, T100D, V108Y, L110Y
VL: B5 VL with G91A, L96I
B10: Trypsin 1/Trypsin 2-Dual-L4-Ab2 (antibody, V domains shown)
VH: B7 VH with T100D, V108Y, L110Y
VL: B5 VL with G91A, L96I
B11: Trypsin 1/Trypsin 2-Dual-L3-Ab2 (antibody, V domains shown)
VH: QVQLVQSGAEVKKPGASVKVSCKASGYTFTDHYMHWVRQAPGQGLEWMGAINPSSGGTAYAQKFQGRVTMTRDTSISTAYMELSRLRSDDTAVYYCARVGGAARVGKAYTASAFDIWGQGTMVTVSS
VL: EIVMTQSPATLSVSPGERATLSCRASQSVGSNLAWYQQKPGQAPRLLIYGASTRATGIPARFSGSGSGTEFTLTISSLQSEDFAVYYCQQFHNWPPLTFGGGTKVEIK
B12: Trypsin 1/Trypsin 2-Dual-L5-Ab2 (antibody, V domains shown)
VH: QVQLVQSGAEVKKPGASVKVSCKASGYTFEGHYMHWVRQAPGQGLEWMGAINPYSGQTNYAQKFQGRVTMTRDTSISTAYMELSRLRSDDTAVYYCARDFVLLLRQSRILHESAFDIWGQGTTVTVSS
VL: B11 VL

The first experiment deals with human trypsin 1 with serine to alanine mutation (including a His tag at C terminus) (human) (UniProt P07477). Description: SPR (Biacore) screen. For orientation: SPR reads the build-up and loss of mass on a sensor chip optically.
In the case of B1, the binding entry is listed as “binds”.

Another experiment addresses human trypsin 2 with serine to alanine mutation (including a His tag at C terminus) (human) (UniProt P07478). Kind of experiment: SPR (Biacore) screen.
Turning to B2, the binding entry was “binds”.
The same measure, in the same setting: the entry for B3 is “binds”; for B1 it is “binds”; for B4 it is “binds”.
The same measure, in the same setting: the entry for B5 is “binds”; for B6 it is “binds”.
For the molecule B7, the binding entry is on record as “binds”.
Still for that read-out and setting: for B8 the value was “binds”.
For B9, the binding entry is reported as “binds”.
B10: the binding entry is recorded as “binds”.
Regarding B11, the binding result is given as “binds”.
On the same count and under the same terms, the entry for B12 is “binds”.
